Assay results taken from US20150329638A1 (Biogen, published 2015).
These are yes or no findings as the source states them, for the method shown. Some entries that bind do so weakly or less than the wild type.

T1: rat DR6 (rat, UniProt D3ZF92 42-655)
T1 construct: Full length rat DR6 expressed on transfected HEK293 cells
T1 sequence: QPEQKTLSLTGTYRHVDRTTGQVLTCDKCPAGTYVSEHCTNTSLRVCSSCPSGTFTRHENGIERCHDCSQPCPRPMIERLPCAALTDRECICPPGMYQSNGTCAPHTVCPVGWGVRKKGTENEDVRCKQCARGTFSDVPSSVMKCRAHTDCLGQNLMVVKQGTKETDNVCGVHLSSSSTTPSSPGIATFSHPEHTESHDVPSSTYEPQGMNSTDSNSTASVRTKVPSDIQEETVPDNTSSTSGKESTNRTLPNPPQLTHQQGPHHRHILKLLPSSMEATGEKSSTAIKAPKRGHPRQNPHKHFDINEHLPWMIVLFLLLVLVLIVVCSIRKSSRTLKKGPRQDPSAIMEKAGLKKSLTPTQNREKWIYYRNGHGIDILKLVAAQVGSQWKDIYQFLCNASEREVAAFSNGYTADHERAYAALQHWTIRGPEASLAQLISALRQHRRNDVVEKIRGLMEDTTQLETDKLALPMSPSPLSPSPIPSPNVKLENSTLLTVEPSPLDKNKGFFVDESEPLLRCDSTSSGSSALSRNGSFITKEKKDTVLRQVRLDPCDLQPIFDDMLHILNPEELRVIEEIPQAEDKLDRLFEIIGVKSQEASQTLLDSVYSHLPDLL


What was measured:
[1] = biological target: cyno monkey DR6 (cyno monkey); assay: binding assay, format not described
rat DR6 = biological target: T1, rat DR6; assay: binding to rat DR6 (FIG. 6)

Binder | binding [1] | binding (rat DR6)
1P5D10.2 (antibody, V domains shown, Murine monoclonal antibody from a hybridoma; also called DR6 antagonist monoclonal antibody 5D10; anti-DR6 antibody 5D10) VH: EVQLVESGGGLVKPGGSLKLSCAASGFTFSDYYMYWVRQTPEKRLEWVATISDGGLYTYYQDSVKGRFTISRDNAKNNLYLQMSSLKSEDTAMYYCAREDDYDGDFYTMDYWGQGTSVTVSS VL: QIVLTQSPAIMSASPGEKVTITCSASSSVSYMHWFQQKPGTSPKLWIYSTSNLASGVPARFSGSGSGTSYSLTISRMEAEDAATYYCQQRSSYPLTFGAGTKLELK | binds | –
M53-E04 (Fab, V domains shown, The format in the assay (Fab or full IgG) is therefore not certain; also called EO4 antibody; E04 mAb) VH: EVQLLESGGGLVQPGGSLRLSCAASGFTFSNYEMSWVRQAPGKGLEWVSSIYSSGGETLYADSVKGRFTISRDNSKNTLYLQMNSLRAEDTAVYYCARDGAADYWGQGTLVTVSS VL: QSELTQPPSASGTPGQWVTISCSGSTSNIGNNYVYWYQQLPGTAPKLLIYTNNQRPSGVPDRFSGSKSGTSASLAISGLRSEDEADYYCATWDDSLYAPVFGGGTKVTVL | binds | –
5D10Y57A (antibody, V domains shown) VH: EVQLVESGGGLVKPGGSLKLSCAASGFTFSDYYMYWVRQTPEKRLEWVATISDGGLATYYQDSVKGRFTISRDNAKNNLYLQMSSLKSEDTAMYYCAREDDYDGDFYTMDYWGQGTSVTVSS VL: QIVLTQSPAIMSASPGEKVTITCSASSSVSYMHWFQQKPGTSPKLWIYSTSNLASGVPARFSGSGSGTSYSLTISRMEAEDAATYYCQQRSSYPLTFGAGTKLELK | – | binds
